# The supplement of paper PMC12067093, “Discovery and optimisation of a covalent ligand for TRIM25 and its application to targeted protein ubiquitination” (Chemical Science, 2025)
# Chains of the proteins cited; added tags and fusions are not shown. Lines headed by an entry give the natural chain unless they say otherwise; changes in a name come on top.
# UniProt Q99590: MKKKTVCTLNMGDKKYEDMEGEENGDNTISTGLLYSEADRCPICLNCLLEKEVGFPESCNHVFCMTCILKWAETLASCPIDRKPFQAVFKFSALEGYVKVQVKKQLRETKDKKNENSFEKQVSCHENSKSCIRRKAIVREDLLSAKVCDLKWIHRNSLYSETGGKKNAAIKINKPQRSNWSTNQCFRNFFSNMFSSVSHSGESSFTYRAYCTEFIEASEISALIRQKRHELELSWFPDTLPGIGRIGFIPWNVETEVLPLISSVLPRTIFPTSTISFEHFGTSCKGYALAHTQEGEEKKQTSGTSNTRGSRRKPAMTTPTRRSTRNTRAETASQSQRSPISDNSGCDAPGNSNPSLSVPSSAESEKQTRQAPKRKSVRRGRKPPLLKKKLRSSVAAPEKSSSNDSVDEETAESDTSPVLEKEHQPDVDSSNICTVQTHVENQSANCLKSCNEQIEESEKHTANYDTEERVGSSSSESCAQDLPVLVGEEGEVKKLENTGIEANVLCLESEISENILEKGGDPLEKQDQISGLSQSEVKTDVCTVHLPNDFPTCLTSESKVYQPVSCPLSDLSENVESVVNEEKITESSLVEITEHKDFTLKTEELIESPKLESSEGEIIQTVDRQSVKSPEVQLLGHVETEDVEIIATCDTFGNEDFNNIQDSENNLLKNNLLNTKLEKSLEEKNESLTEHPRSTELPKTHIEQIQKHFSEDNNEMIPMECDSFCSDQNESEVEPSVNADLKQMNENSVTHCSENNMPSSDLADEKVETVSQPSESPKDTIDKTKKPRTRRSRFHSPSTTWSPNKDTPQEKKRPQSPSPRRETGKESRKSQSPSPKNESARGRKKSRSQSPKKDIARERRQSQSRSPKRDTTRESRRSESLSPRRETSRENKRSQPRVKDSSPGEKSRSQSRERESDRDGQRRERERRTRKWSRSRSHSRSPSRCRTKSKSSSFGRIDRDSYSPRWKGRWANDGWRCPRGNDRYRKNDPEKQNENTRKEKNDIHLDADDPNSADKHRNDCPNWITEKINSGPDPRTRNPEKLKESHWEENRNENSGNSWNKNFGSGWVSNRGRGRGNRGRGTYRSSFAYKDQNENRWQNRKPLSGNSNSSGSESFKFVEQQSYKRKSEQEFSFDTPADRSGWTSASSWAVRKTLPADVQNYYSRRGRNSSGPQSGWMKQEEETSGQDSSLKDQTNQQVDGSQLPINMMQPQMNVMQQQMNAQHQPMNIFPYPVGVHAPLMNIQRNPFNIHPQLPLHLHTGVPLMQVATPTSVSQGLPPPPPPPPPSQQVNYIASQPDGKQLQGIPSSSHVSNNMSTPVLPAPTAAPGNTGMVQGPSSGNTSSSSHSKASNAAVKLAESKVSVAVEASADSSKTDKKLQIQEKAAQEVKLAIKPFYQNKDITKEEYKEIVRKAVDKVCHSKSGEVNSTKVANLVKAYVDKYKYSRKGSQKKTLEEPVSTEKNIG
# UniProt P53992: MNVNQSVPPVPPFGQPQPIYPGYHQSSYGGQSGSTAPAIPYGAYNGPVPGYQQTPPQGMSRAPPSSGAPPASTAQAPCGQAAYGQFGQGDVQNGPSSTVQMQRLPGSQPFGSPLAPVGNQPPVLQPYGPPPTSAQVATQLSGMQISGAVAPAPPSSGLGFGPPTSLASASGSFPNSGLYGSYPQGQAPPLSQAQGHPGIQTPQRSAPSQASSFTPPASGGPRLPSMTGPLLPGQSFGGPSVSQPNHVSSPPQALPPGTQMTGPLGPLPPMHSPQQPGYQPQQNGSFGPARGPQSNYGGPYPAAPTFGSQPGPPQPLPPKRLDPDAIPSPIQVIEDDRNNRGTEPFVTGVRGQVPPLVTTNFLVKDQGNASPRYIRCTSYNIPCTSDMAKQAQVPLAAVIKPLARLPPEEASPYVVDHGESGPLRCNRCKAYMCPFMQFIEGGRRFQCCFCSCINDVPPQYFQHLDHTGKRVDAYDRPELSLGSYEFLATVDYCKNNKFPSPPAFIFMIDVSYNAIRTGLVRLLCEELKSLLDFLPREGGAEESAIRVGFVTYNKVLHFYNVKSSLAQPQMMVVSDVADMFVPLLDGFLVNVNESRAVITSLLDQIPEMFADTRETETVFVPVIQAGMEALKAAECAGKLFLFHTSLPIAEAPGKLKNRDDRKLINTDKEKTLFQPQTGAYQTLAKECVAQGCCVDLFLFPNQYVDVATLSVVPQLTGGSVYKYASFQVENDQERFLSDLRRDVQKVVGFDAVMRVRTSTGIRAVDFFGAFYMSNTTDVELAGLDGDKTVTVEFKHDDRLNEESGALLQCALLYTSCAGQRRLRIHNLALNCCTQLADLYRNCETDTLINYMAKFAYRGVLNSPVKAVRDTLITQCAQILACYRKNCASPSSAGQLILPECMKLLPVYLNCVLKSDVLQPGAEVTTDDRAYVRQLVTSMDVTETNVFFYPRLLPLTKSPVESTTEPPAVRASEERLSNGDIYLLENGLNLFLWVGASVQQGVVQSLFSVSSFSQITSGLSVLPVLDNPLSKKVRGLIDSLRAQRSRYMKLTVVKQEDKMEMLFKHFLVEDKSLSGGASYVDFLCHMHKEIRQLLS
# UniProt Q9Y512: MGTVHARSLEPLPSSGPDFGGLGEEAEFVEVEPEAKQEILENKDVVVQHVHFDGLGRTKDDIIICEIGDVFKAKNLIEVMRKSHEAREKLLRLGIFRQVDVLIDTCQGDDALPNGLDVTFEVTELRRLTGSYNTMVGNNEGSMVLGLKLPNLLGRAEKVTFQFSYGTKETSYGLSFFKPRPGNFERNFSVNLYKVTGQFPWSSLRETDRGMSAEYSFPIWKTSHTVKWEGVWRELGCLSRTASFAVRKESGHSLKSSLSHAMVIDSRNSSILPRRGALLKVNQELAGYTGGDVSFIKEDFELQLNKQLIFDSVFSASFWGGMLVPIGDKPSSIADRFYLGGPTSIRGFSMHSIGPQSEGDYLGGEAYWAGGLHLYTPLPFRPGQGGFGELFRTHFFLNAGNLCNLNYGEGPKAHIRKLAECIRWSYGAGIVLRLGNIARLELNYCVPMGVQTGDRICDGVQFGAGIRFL
# UniProt Q15020: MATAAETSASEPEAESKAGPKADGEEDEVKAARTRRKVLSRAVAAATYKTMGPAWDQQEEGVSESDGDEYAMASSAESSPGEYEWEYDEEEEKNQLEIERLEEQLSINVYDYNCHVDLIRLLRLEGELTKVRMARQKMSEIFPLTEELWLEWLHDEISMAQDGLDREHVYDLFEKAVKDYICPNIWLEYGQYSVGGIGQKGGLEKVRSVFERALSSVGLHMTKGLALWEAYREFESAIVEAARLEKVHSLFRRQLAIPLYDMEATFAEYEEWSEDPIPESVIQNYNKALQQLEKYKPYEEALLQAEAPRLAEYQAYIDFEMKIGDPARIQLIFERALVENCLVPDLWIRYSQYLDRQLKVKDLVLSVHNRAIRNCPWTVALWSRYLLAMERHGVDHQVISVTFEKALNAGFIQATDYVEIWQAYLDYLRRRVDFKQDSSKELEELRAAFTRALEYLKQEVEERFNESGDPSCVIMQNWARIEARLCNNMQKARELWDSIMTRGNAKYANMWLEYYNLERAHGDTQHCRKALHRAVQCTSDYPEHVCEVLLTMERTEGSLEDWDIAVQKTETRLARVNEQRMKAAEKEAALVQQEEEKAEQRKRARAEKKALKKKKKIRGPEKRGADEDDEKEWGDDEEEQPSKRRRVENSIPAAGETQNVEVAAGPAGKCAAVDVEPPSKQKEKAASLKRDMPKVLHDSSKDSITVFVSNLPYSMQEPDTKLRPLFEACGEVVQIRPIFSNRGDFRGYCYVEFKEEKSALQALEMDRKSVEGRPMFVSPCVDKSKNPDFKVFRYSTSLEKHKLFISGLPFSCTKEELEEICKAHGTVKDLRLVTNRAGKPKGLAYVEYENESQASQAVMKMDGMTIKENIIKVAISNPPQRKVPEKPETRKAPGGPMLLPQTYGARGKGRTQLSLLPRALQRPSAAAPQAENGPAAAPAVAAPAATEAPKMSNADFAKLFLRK
# UniProt Q15437: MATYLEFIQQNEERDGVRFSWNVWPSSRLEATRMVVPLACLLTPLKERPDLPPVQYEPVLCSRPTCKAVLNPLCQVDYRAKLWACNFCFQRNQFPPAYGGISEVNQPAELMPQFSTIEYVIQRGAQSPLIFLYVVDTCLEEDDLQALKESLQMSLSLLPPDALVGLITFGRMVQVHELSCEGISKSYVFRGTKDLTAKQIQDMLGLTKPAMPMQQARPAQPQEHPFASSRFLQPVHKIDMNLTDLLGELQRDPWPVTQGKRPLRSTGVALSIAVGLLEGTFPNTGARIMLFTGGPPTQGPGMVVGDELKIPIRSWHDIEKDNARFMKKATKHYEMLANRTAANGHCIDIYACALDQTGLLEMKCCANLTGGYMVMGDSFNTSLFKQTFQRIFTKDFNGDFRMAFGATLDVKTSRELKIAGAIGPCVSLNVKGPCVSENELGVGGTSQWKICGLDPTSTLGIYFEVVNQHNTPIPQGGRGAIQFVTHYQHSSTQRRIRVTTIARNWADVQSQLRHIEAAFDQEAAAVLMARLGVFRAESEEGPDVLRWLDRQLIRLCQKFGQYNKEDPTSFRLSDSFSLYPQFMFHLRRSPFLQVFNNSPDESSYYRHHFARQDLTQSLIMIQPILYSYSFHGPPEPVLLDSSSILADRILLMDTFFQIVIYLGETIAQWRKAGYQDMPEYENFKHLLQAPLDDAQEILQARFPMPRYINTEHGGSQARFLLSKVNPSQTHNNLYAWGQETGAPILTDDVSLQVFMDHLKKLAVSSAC
# UniProt Q96KG9: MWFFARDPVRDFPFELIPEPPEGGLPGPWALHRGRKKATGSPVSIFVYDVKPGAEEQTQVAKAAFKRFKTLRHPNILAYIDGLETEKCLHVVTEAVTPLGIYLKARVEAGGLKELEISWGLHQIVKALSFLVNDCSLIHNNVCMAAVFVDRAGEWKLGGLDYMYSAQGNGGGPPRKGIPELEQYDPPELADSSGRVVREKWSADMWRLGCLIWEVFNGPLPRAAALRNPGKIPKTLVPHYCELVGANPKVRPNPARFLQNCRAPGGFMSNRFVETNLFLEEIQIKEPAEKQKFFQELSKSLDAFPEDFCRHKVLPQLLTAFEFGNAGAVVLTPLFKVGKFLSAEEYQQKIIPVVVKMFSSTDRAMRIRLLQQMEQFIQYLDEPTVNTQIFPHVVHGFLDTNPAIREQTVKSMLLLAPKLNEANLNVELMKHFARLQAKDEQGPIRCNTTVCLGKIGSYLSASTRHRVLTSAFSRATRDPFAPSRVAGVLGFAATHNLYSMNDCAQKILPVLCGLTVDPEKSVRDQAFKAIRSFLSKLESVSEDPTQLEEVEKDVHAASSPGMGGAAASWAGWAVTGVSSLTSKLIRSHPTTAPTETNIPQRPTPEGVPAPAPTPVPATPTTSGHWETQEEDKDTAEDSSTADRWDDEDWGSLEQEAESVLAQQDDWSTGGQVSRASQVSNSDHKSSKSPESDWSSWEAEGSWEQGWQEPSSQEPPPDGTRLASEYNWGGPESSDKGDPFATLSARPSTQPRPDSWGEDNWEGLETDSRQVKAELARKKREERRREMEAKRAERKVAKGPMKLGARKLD
# UniProt P55735: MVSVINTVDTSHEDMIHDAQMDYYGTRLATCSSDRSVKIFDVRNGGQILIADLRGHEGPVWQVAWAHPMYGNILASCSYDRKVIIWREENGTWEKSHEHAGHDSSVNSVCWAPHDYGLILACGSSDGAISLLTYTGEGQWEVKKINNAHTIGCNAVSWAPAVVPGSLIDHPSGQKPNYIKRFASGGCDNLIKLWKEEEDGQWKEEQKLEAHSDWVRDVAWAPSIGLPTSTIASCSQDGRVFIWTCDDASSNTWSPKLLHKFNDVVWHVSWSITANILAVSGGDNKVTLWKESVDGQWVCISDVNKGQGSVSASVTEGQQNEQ
# UniProt Q9UQR0: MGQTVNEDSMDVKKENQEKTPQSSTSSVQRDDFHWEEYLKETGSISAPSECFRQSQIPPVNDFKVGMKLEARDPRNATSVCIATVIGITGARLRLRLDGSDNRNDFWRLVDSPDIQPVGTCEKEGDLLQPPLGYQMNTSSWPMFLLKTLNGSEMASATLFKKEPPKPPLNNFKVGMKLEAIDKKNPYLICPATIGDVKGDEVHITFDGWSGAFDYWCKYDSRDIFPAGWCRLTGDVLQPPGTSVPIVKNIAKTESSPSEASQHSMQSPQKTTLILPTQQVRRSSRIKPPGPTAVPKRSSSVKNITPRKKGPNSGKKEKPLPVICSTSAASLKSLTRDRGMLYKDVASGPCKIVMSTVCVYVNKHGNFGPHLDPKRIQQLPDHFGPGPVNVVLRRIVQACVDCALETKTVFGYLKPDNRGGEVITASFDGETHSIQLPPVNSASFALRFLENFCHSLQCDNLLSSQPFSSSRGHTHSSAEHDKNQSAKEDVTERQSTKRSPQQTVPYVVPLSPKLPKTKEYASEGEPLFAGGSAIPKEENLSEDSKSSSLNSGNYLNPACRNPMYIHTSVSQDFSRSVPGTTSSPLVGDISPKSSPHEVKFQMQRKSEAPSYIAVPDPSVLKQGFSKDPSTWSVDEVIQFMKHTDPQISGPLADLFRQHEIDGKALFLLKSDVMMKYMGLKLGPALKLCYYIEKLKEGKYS
# The list shows a part of the results.
# Compound: CC1Cc2ccccc2N1C(=O)C1CCCN(C1)C(=O)CCl (mixture of isomers) [TRIM25 ligand 11 (diastereomer mixture)]
# Experiment: probe-labelled cysteine peptide fold change vs DMSO (competition) (log2 fold change); higher = less target engagement (more negative = stronger competition)
# Conditions: THP-1, incubation time: 4 h
# 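Also: competitive chemoproteomic profiling in live THP-1 cells with an iodoacetamide desthiobiotin (IA-DTB) probe, comparing probe-labelled peptide intensities in compound-treated cells against DMSO-treated controls.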
Target,probe-labelled cysteine peptide fold change (10 µM),probe-labelled cysteine peptide fold change (50 µM)
SCAF11_Q99590_566_VYQPVSCPLSDLSENVESVVNEEK (UniProt Q99590),-0.0494,-0.138
SEC24C_P53992_832_IHNLALNCCTQLADLYR (UniProt P53992),0.309,0.237
SAMM50_Q9Y512_65_DDIIICEIGDVFK (UniProt Q9Y512),0.186,-0.000637
SEPSECS_Q9HD40_262_CMHLIQQGAR (UniProt Q9HD40),-0.0253,-0.0292
SART3_Q15020_527_AHGDTQHCR (UniProt Q15020),0.0106,0.00251
SEC24C_P53992_816_HDDRLNEESGALLQCALLYTSCAGQR (UniProt P53992),0.167,0.171
SEC23B_Q15437_61_ERPDLPPVQYEPVLCSRPTCK (UniProt Q15437),-0.0466,0.0389
SCYL1_Q96KG9_512_ILPVLCGLTVDPEK (UniProt Q96KG9),0.0691,0.016
SDCBP_O00560_239_NGLLTEHNICEINGQNVIGLK (UniProt O00560),0.0202,0.0577
SAMHD1_Q9Y3Z3_51_TWGPEQVCSFLR (UniProt Q9Y3Z3),0.0384,0.092
SAMM50_Q9Y512_237_ELGCLSR (UniProt Q9Y512),-0.0209,0.0477
SEC23B_Q15437_61+66_ERPDLPPVQYEPVLCSRPTCK (UniProt Q15437),-0.218,-0.289
SCRIB_Q14160_1612_PSPGAVGPEDVALCSSR (UniProt Q14160),-0.0317,-0.0855
SATB1_Q01826_78_KGTMLPVFCVVEHYENAIEYDCKEEHAEFVLVR (UniProt Q01826),-0.0424,-0.0291
SEC24C_P53992_452_FQCCFCSCINDVPPQYFQHLDHTGK (UniProt P53992),-0.0454,-0.381
SEC13_P55735_234_DVAWAPSIGLPTSTIASCSQDGR (UniProt P55735),-0.0694,0.0911
SCRIB_Q14160_334_LTNLNVDRNHLEALPPEIGGCVALSVLSLR (UniProt Q14160),-0.0494,-0.0286
SEC63_Q9UGP8_490_EQSICAAEEQPAEDGQGETNK (UniProt Q9UGP8),0.0683,-0.228
SCAF11_Q99590_752_QMNENSVTHCSENNMPSSDLADEK (UniProt Q99590),0.00365,-0.727

# Some values from the results shown:
# probe-labelled cysteine peptide fold change (50 µM), SART3_Q15020_527_AHGDTQHCR (UniProt Q15020) is entered as 0.00251
# probe-labelled cysteine peptide fold change (10 µM), SCAF11_Q99590_752_QMNENSVTHCSENNMPSSDLADEK (UniProt Q99590) is entered as 0.00365

# Carrying on.

Target,probe-labelled cysteine peptide fold change (10 µM),probe-labelled cysteine peptide fold change (50 µM)
SCYL2_Q6P3W7_511_VNSLVCLGK (UniProt Q6P3W7),-0.17,0.0145
SEMA4D_Q92854_370_PRPGACIDSEAR (UniProt Q92854),0.0249,0.0269
SART3_Q15020_780_PMFVSPCVDK (UniProt Q15020),0.0628,-0.0727
SCML2_Q9UQR0_51_ETGSISAPSECFR (UniProt Q9UQR0),-0.024,-0.163
SDF2_Q99470_137_NLHSHHFTSPLSGNQEVSAFGEEGEGDYLDDWTVLCNGPYWVR (UniProt Q99470),0.298,0.622
SEC23B_Q15437_425_IAGAIGPCVSLNVK (UniProt Q15437),0.00238,0.0675
SART3_Q15020_670_CAAVDVEPPSK (UniProt Q15020),0.0246,-0.148
SCML2_Q9UQR0_121_LVDSPDIQPVGTCEK (UniProt Q9UQR0),0.0247,-0.0594
SCAF8_Q9UPN6_475_TLSVCSTTLWVGQVDKK (UniProt Q9UPN6),-0.0995,-0.107
SC5D_O75845_285_SSHSGNGCK (UniProt O75845),-0.0733,-0.341
SBF1_O95248_987_SCTFQLLK (UniProt O95248),-0.0361,0.064
SEC14L1_Q92503_614_DYSMVESPLICK (UniProt Q92503),-0.167,-0.249
SCYL1_Q96KG9_503_VAGVLGFAATHNLYSMNDCAQK (UniProt Q96KG9),-0.221,-0.328
SDK1_Q7Z5N4_1538_GEWQTYSSSISHEATACVVDR (UniProt Q7Z5N4),0.117,-0.13
SEC16A_O15027_1451_FSVPHVCAR (UniProt O15027),-0.0536,0.00451
SDCCAG8_Q86SQ7_236_CEIEESQLK (UniProt Q86SQ7),-0.00217,0.0169
SATB2_Q9UPW6_246_ENLSDYCVLGQR (UniProt Q9UPW6),0.308,0.0945
SEC24B_O95487_1103_VYAMCQIK (UniProt O95487),-0.00811,0.0235
SEC24D_O94855_390_YQCGFCNCVNDVPPFYFQHLDHIGR (UniProt O94855),0.193,0.41
